# In the supplement of paper PMC9135407:
# Where “and” joins values, the source holds several entries; their conditions need not be identical. Equal values may be shown once. Where a name gives a salt, the structure may show the parent alone. ± gives the standard deviation of the averaged measurements. The list shows a part of the results. Baselines shift from plate to plate; read single values as rough.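 Culture-activated primary human stellate myofibroblasts, where regained lipid droplets signal inactivation. Value: share of Hoechst-counted cells above a per-plate Bodipy cutoff, in duplicate wells, with DMSO negative and nortriptyline positive controls on each plate. Hits: a control-normalized score above the plate's top-tenth-percentile nortriptyline wells, or one of a plate's three best wells. Final well concentrations are not given.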
# Tested on: primary human hepatic stellate cells (donor 1)
# Assay: percent Bodipy-positive cells; higher = more lipid droplet accumulation
# Conditions: 48 h
# [1] = library stock concentration: 3.33 mM
# [2] = library stock concentration: 10 mM
# [3] = library stock concentration: 2 mM
# [4] = library stock concentration: 80 uM
# [5] = library stock concentration: 400 uM
compound,measurement,setting,value
CCc1ccc(CCOc2ccc(CC3SC(=O)NC3=O)cc2)nc1 (stereo unspecified) [Pioglitazone HCl],percent Bodipy-positive cells,[1],12.1 ± 1.6%
same,percent Bodipy-positive cells,[2],17.3 ± 4.1%
CCc1ccc(CCOc2ccc(CC3SC(=O)NC3=O)cc2)nc1 (stereo unspecified) [Pioglitazone],percent Bodipy-positive cells,[1],9.89 ± 1.4%
same,percent Bodipy-positive cells,[2],20.5 ± 8.1%
CCc1ccc(CCOc2ccc(CC3SC(=O)NC3=O)cc2)nc1 (stereo unspecified),percent Bodipy-positive cells,[2],10.2 ± 2.9%
O=C(O)c1ccccc1-c1c2cc(I)c(=O)c(I)c-2oc2c(I)c(O)c(I)cc12,percent Bodipy-positive cells,[2],33.3 ± 0.84%
Cc1[nH]c(/C=C2\C(=O)Nc3ccc(S(=O)(=O)N(C)c4cccc(Cl)c4)cc32)c(C)c1C(=O)N1CCN(C)CC1 [Met Kinase Inhibitor],percent Bodipy-positive cells,[1],100%
CNC[C@@H](O)c1ccc(O)c(O)c1 [L-Adrenaline],percent Bodipy-positive cells,[1],5.76 ± 0.41%
same,percent Bodipy-positive cells,[2],9.52 ± 2.9%
O=C1c2c(O)cc(CO)cc2C(OC2OC(CO)C(O)C(O)C2O)c2cccc(OC3OC(CO)C(O)C(O)C3O)c21 (stereo unspecified) [CASANTHRANOL [cascaroside A shown]],percent Bodipy-positive cells,[2],26.1 ± 7.3%
COc1c(C)cnc(Cn2cnc3c(Cl)nc(N)nc32)c1C,percent Bodipy-positive cells,[1],64.7 ± 5.3%
Cc1ccc(S(=O)(=O)C=CC#N)cc1,percent Bodipy-positive cells,[1],99.6 ± 0.56%
same,percent Bodipy-positive cells,[2],67.1 ± 14%
"CN(C)C/C=C/C(=O)Nc1cc2c(Nc3ccc(F)c(Cl)c3)ncnc2cc1O[C@H]1CCOC1 [Afatinib  (TOVOK,  BIBW-2992) (2 mM)]",percent Bodipy-positive cells,[3],100%
Cc1ccc(N(CC2=NCCN2)c2cccc(O)c2)cc1 [PhentolamineHCl],percent Bodipy-positive cells,library stock concentration: 7.1 mM,10.7 ± 0.43%
Cc1ccc(N(CC2=NCCN2)c2cccc(O)c2)cc1 [Phentolamine mesylate],percent Bodipy-positive cells,[2],27.4 ± 4.9%
Cc1ccc(N(CC2=NCCN2)c2cccc(O)c2)cc1 [Phentolamine Mesylate],percent Bodipy-positive cells,[1],11.22 ± 0.099%
same,percent Bodipy-positive cells,[2],37.5 ± 10%
Cc1ccc(N(CC2=NCCN2)c2cccc(O)c2)cc1 [Phentolamine?Mono-hydrochloride],percent Bodipy-positive cells,[2],69.14 ± 0.42%
Cc1ccc(N(CC2=NCCN2)c2cccc(O)c2)cc1 [Phentolamine],percent Bodipy-positive cells,library stock concentration: 17.8 mM,42 ± 4.1%
Cc1ccc(N(CC2=NCCN2)c2cccc(O)c2)cc1 [Phentolamine hydrochloride],percent Bodipy-positive cells,,32.9 ± 1.4%
same,percent Bodipy-positive cells,library stock concentration: 6.3 mM,32.4 ± 6.3%
same,percent Bodipy-positive cells,[2],19.5 ± 3.5%
Clc1ccc2c(c1)C(N1CCNCC1)=Nc1ccccc1O2,percent Bodipy-positive cells,[2],92.16 ± 0.15%
Clc1ccc2c(c1)C(N1CCNCC1)=Nc1ccccc1O2 [Amoxapine],percent Bodipy-positive cells,library stock concentration: 6.4 mM,70.5 ± 15%
COc1cc(O)c2c(c1)/C=C/C[C@H](O)[C@H](O)C(=O)/C=C\C[C@H](C)OC2=O [5z-7-oxozeaenol],percent Bodipy-positive cells,[4],6.05 ± 2.4%
same,percent Bodipy-positive cells,[5],6.24 ± 0.41%
same,percent Bodipy-positive cells,[3],5.09 ± 0.87%
same,percent Bodipy-positive cells,[2],60.9 ± 11%
O=C(O)CCCc1c[nH]c2ccccc12 [3-Indolebutyric acid (IBA)],percent Bodipy-positive cells,[1],11.832 ± 0.0064%
same,percent Bodipy-positive cells,[2],17 ± 2.9%
O=C(c1cc(Cc2n[nH]c(=O)c3ccccc23)ccc1F)N1CCN(C(=O)C2CC2)CC1 [Olaparib],percent Bodipy-positive cells,[4],25.3 ± 16%
same,percent Bodipy-positive cells,[5],26.8 ± 17%
same,percent Bodipy-positive cells,[3],29.5 ± 19%
same,percent Bodipy-positive cells,[2],25.9 ± 17%
O=C(c1cc(Cc2n[nH]c(=O)c3ccccc23)ccc1F)N1CCN(C(=O)C2CC2)CC1,percent Bodipy-positive cells,[1],4.61 ± 4.7%
same,percent Bodipy-positive cells,[2],12.4 ± 4.2%
O=C1c2ccccc2C(=O)C1c1ccccc1 [Phenindione],percent Bodipy-positive cells,,25.2 ± 5.3%
same,percent Bodipy-positive cells,[1],27.1 ± 7.8%
same,percent Bodipy-positive cells,library stock concentration: 9 mM,4.28 ± 0.017%
same,percent Bodipy-positive cells,[2],18.9% and 17.2%
CC1(C)CC(=O)c2c(ccc(C(=O)CC(N)CO)c2N)O1 (stereo unspecified),percent Bodipy-positive cells,[2],77.4 ± 1.1%
Cc1cc(C=C2C(=O)C=CC2=O)cc(C)c1O,percent Bodipy-positive cells,[4],13.2 ± 11%
same,percent Bodipy-positive cells,[5],29.6 ± 9.4%
same,percent Bodipy-positive cells,[3],84.8 ± 1.6%
same,percent Bodipy-positive cells,[1],84.33 ± 0.17%
O=C(O)CCc1nc(-c2ccccc2)c(-c2ccccc2)o1,percent Bodipy-positive cells,[2],10.4 ± 2.2%
O=C(O)CCc1nc(-c2ccccc2)c(-c2ccccc2)o1 [Oxaprozin],percent Bodipy-positive cells,,8.62 ± 1.8%
same,percent Bodipy-positive cells,[1],8.24 ± 0.78%
same,percent Bodipy-positive cells,library stock concentration: 6.8 mM,9.92 ± 3.4%
NCCCCC(=O)O [5-Aminovaleric acid hydrochloride],percent Bodipy-positive cells,[2],46.4 ± 8.3%
NCCCCC(=O)O [5-aminopentanoic acid hydrochloride],percent Bodipy-positive cells,[2],19.3 ± 4.1%
c1ccc(CC2=NCCN2)cc1 [Priscoline],percent Bodipy-positive cells,[2],37.2 ± 5.5%
c1ccc(CC2=NCCN2)cc1 [Tolazoline HCl],percent Bodipy-positive cells,[1],13.9 ± 3%
same,percent Bodipy-positive cells,[2],32.6 ± 12%
c1ccc(CC2=NCCN2)cc1 [Tolazoline hydrochloride],percent Bodipy-positive cells,,38.8 ± 22%
same,percent Bodipy-positive cells,[2],32.5 ± 12%
OCCN1CCN(CCCN2c3ccccc3Sc3ccc(C(F)(F)F)cc32)CC1,percent Bodipy-positive cells,[2],91.1 ± 7.9%
OCCN1CCN(CCCN2c3ccccc3Sc3ccc(C(F)(F)F)cc32)CC1 [Fluphenazine hydrochloride],percent Bodipy-positive cells,[2],73.9 ± 16%
OCCN1CCN(CCCN2c3ccccc3Sc3ccc(C(F)(F)F)cc32)CC1 [Fluphenazine dihydrochloride],percent Bodipy-positive cells,,69.3 ± 8.1%
same,percent Bodipy-positive cells,[2],100%

# In another format: results already given
compound	measurement	setting	value
Cc1ccc(N(CC2=NCCN2)c2cccc(O)c2)cc1 [Phentolamine]	percent Bodipy-positive cells	library stock concentration: 17.8 mM	42 ± 4.1%
Cc1cc(C=C2C(=O)C=CC2=O)cc(C)c1O	percent Bodipy-positive cells	[4]	13.2 ± 11%
O=C(O)CCc1nc(-c2ccccc2)c(-c2ccccc2)o1 [Oxaprozin]	percent Bodipy-positive cells	[1]	8.24 ± 0.78%
